# Publication doi:10.1101/746677
# Sequences of proteins named here, by UniProt entry; tags and fusion partners are left off.
# UniProt P49407: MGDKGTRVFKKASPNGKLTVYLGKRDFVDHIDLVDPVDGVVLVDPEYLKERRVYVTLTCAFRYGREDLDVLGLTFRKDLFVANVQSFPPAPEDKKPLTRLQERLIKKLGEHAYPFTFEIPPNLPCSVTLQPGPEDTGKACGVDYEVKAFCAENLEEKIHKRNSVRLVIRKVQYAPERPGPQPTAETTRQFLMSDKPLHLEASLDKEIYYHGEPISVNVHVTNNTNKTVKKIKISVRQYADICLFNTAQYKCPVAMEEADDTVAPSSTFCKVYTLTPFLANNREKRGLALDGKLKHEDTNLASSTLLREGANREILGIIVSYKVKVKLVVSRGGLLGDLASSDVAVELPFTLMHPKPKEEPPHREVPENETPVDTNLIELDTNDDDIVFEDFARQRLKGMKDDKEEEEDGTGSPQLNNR
# UniProt P32121: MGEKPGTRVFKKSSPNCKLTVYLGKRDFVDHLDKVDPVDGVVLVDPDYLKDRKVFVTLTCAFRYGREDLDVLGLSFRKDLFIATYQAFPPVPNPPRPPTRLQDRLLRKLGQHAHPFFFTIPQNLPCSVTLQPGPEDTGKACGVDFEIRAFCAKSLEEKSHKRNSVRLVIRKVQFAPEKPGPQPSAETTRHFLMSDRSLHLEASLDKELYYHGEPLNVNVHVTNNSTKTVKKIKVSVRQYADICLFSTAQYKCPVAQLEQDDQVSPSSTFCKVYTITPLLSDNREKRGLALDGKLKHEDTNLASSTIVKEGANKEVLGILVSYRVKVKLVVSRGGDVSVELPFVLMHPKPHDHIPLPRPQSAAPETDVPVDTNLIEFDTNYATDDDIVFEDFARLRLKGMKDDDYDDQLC
# These are yes or no findings as the source states them, for the method shown. In cells and extracts the contact can be indirect. Some entries that bind do so weakly or less than the wild type. Where a sequence is shown, tags or fusion partners need not be part of it.
# Molecular target: T1, c-terminally YFP tagged PAR4 (Proteinase-Activated Receptor 4) (UniProt Q96RI0)
# T1 sequence: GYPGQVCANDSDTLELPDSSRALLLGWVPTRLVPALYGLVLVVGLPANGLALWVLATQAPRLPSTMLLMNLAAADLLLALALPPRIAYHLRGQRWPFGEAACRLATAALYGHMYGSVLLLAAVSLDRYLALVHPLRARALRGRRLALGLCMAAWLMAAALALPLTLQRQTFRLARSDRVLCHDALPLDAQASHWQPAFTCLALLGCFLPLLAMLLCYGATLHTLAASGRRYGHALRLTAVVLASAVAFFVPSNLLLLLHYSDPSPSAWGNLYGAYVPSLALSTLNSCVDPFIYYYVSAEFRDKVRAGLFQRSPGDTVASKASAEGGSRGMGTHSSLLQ
# Test: FRET or BRET
row,Substance,binding
1,Renilla Luciferase (Rluc) tagged β-arrestin 1 (from UniProt P49407 1-418),binds
2,Renilla Luciferase (Rluc) tagged β-arrestin 2 (from UniProt P32121 1-409),binds
